Our source for the binding values is paper PMC13558869.

Assay [1] addresses T1, UltraID_ZFP36L1 (UltraID fused to the N-terminus of ZFP36L1, co-expressed with GFP through P2A) (UniProt Q07352).
T1 sequence: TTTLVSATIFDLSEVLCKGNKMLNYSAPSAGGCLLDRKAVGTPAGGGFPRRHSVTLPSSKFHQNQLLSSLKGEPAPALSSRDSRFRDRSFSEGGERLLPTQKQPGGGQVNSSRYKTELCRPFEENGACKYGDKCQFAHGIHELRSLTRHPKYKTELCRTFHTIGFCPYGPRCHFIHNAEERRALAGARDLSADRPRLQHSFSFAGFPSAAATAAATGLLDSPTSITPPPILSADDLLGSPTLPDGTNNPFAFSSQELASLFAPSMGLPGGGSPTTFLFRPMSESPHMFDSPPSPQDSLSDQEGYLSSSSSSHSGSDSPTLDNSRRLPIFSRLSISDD
Kind of assay: proximity labelling; UltraID_L1 in retrovirally transduced primary human T cells, rested or re-activated 16 h with αCD3/αCD28, with or without 500 μM biotin; biotinylated proteins captured from lysate on streptavidin beads and identified by MS; controls UltraID_GFP and no biotin; T cell screens 1 and 2 (the network of Fig 3A also draws on the Jurkat screen).

For assay [2], the target named is T2, ZFP36L1 (human (endogenous in primary T cells)) (UniProt Q07352).
T2 sequence: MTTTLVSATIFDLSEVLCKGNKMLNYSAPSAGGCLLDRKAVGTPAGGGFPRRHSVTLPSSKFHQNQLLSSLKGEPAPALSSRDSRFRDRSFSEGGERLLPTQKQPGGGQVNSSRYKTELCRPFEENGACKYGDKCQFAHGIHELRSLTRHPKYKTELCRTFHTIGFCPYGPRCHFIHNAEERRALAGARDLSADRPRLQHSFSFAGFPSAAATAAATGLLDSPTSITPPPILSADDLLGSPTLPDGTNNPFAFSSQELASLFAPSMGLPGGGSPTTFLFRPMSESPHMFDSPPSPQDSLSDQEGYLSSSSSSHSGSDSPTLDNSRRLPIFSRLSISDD
Kind of assay: affinity purification with mass spectrometry; Co-IP of endogenous ZFP36L1 with 10 μg anti-ZFP36L1 (1A3) or IgG control on Protein A Dynabeads, 4 h at 4°C, from cytoplasmic (1% digitonin) lysates of αCD3/αCD28-activated human CD3+ T cells at 0, 2, 5, 16 h; lysates untreated or treated with 200 U/ml RNAse A throughout; MS.

No constants are given. Whether binding was seen depends on the method and setting. Binding seen in cells or lysates may run through a third protein. A yes stands for co-enrichment or nearness to the bait. Other partners may have been found. For some of these results: Tags and fused reporters may be left off the sequences shown.

B1: ZNF598 (protein, UniProt Q86UK7 1-904)
chain: MAAAGGAEGRRAALEAAAAAAPERGGGSCVLCCGDLEATALGRCDHPVCYRCSTKMRVLCEQRYCAVCREELRQVVFGKKLPAFATIPIHQLQHEKKYDIYFADGKVYALYRQLLQHECPRCPELPPFSLFGDLEQHMRRQHELFCCRLCLQHLQIFTYERKWYSRKDLARHRMQGDPDDTSHRGHPLCKFCDERYLDNDELLKHLRRDHYFCHFCDSDGAQDYYSDYAYLREHFREKHFLCEEGRCSTEQFTHAFRTEIDLKAHRTACHSRSRAEARQNRHIDLQFSYAPRHSRRNEGVVGGEDYEEVDRYSRQGRVARAGTRGAQQSRRGSWRYKREEEDREVAAAVRASVAAQQQEEARRSEDQEEGGRPKKEEAAARGPEDPRGPRRSPRTQGEGPGPKETSTNGPVSQEAFSVTGPAAPGCVGVPGALPPPSPKLKDEDFPSLSASTSSSCSTAATPGPVGLALPYAIPARGRSAFQEEDFPALVSSVPKPGTAPTSLVSAWNSSSSSKKVAQPPLSAQATGSGQPTRKAGKGSRGGRKGGPPFTQEEEEDGGPALQELLSTRPTGSVSSTLGLASIQPSKVGKKKKVGSEKPGTTLPQPPPATCPPGALQAPEAPASRAEGPVAVVVNGHTEGPAPARSAPKEPPGLPRPLGSFPCPTPQEDFPALGGPCPPRMPPPPGFSAVVLLKGTPPPPPPGLVPPISKPPPGFSGLLPSPHPACVPSPATTTTTKAPRLLPAPRAYLVPENFRERNLQLIQSIRDFLQSDEARFSEFKSHSGEFRQGLISAAQYYKSCRDLLGENFQKVFNELLVLLPDTAKQQELLSAHTDFCNREKPLSTKSKKNKKSAWQATTQQAGLDCRVCPTCQQVLAHGDASSHQALHAARDDDFPSLQAIARIIT
As for B1, the binding entry in assay [1] and in assay [2] was “binds” each time.

B2: FAM120A (protein, UniProt Q9NZB2 1-1118)
chain: MGVQGFQDYIEKHCPSAVVPVELQKLARGSLVGGGRQRPPQTPLRLLVDADNCLHRLYGGFYTDWVSGGQWNHMLGYLAALAKACFGGNIELFVFFNGALEKARLHEWVKRQGNERQTAQQIVSHVQNKGTPPPKVWFLPPVCMAHCIRLALIRFHVKVAQSIEDHHQEVIGFCRENGFHGLVAYDSDYALCNIPYYFSAHALKLSRNGKSLTTSQYLMHEVAKQLDLNPNRFPIFAALLGNHILPDEDLASFHWSLLGPEHPLASLKVRAHQLVLPPCDVVIKAVADYVRNIQDTSDLDAIAKDVFQHSQSRTDDKVIRFKRAIGYYSATSKPMSFHPPHYLAARPGPFGMPGMVPPHVPPQMLNIPQTSLQAKPVAPQVPSPGGAPGQGPYPYSLSEPAPLTLDTSGKNLTEQNSYSNIPHEGKHTPLYERSSPINPAQSGSPNHVDSAYFPGSSTSSSSDNDEGSGGATNHISGNKIGWEKTGSHSEPQARGDPGDQTKAEGSSTASSGSQLAEGKGSQMGTVQPIPCLLSMPTRNHMDITTPPLPPVAPEVLRVAEHRHKKGLMYPYIFHVLTKGEIKIAVSIEDEANKDLPPAALLYRPVRQYVYGVLFSLAESRKKTERLAFRKNRLPPEFSPVIIKEWAAYKGKSPQTPELVEALAFREWTCPNLKRLWLGKAVEDKNRRMRAFLACMRSDTPAMLNPANVPTHLMVLCCVLRYMVQWPGARILRRQELDAFLAQALSPKLYEPDQLQELKIENLDPRGIQLSALFMSGVDMALFANDACGQPIPWEHCCPWMYFDGKLFQSKLLKASREKTPLIDLCDGQADQAAKVEKMRQSVLEGLSFSRQSHTLPFPPPPALPFYPASAYPRHFGPVPPSQGRGRGFAGVCGFGGPYGETVATGPYRAFRVAAASGHCGAFSGSDSSRTSKSQGGVQPIPSQGGKLEIAGTVVGHWAGSRRGRGGRGPFPLQVVSVGGPARGRPRGVISTPVIRTFGRGGRYYGRGYKNQAAIQGRPPYAASAEEVAKELKSKSGESKSSAMSSDGSLAENGVMAEEKPAPQMNGSTGDARAPSHSESALNNDSKTCNTNPHLNALSTDSACRREAALEAAVLNKEE
For the molecule B2, the binding result in assay [1] and in assay [2] was “binds” in each case.
